Laboratory results reported in patent US20050203288A1 (DEUTSCHES KREBSFORSCHUNGSZENTRUM STIFUNG DES OFFENTLICHEN …, published 2005).
These are yes or no findings as the source states them, for the method shown. Some entries that bind do so weakly or less than the wild type.

B1: peptide number 5 (peptide, not shown: large carriers)
chain: GSRFRVFVCSLFSFLSGRGGGVVVLRSAEIYES
notes: that construct is not described for linear peptides
B2: peptide number 7 (peptide, not shown: large carriers)
chain: GPFKRCHERLVAFARCWFMWSMVLRSAEIYES
notes: as for B1
B3: peptide number 16 (peptide, not shown: large carriers)
chain: GPHSSAHDRIWLRVRGLRIILLVLRSAEIYES
notes: as for B1
B4: peptide number 54 (peptide, not shown: large carriers)
chain: GPWWKDRGVLVRLCVLRLVVGVVLRSAEIYES
notes: Mammalian two-hybrid construct not described for linear peptides
B5: peptide number 65 (peptide, not shown: large carriers)
chain: GAGLGRVIRLRIVVLRCIFLLFRVLRSAEIYES
notes: as for B1
B6: peptide number 69 (peptide, not shown: large carriers)
chain: GPFPFDYPRWIMIVLLRGVLRSAEIYES
notes: as for B1
B7: peptide number 75 (peptide, not shown: large carriers)
chain: GSRCIRRRISILFFVFRVLRSRRVLRSAEIYES
notes: as for B1
B8: peptide number 77 (peptide, not shown: large carriers)
chain: GPFSEHARGHVVTICRLRLLFWLLRSAEIYES
notes: as for B1
B9: peptide number 90 (peptide, not shown: large carriers)
chain: GPYPYLRILLVQKIACVRRALWVLRSAEIYES
notes: as for B1

Tests used:
livin [1] = target: livin (UniProt P04386); test: yeast two-hybrid, peptide in trxA scaffold
livin [2] = target: livin (UniProt P04386); test: yeast two-hybrid, linear peptide on Gal4 activation domain

| Binder | binding (livin [1]) | binding (livin [2]) |
| --- | --- | --- |
| WLGTFSGTCSTAFYFPLGVP (peptide, not shown: large carriers) [SEQ ID NO 1] | binds | – |
| MMDSA (peptide, not shown: large carriers) [SEQ ID NO 11] | binds | – |
| ASLRLYPIGGTVPFGRTGAG (peptide, not shown: large carriers) [SEQ ID NO 12] | binds | – |
| ACWALWSLFRQDLLLVITFD (peptide, not shown: large carriers) [SEQ ID NO 14] | binds | – |
| DSAPGERYFVDFLGVSFACVWSVQNDRPDSG (peptide, not shown: large carriers) [SEQ ID NO 15] | binds | – |
| IPWAPPMYFADSNV (peptide, not shown: large carriers) [SEQ ID NO 16] | binds | – |
| HSRPALCMVSLRWARSLWIV (peptide, not shown: large carriers) [SEQ ID NO 19] | binds | – |
| LLAWRVQQSRPLPYLHIAFI (peptide, not shown: large carriers) [SEQ ID NO 23] | binds | – |
| PPPLTGRWSRQCVSVFGIVH (peptide, not shown: large carriers) [SEQ ID NO 24] | binds | – |
| CWIHRAWMLSWHGVWSLTLV (peptide, not shown: large carriers) [SEQ ID NO 25] | binds | – |
| APPISGRWRGLYMRSRFVSL (peptide, not shown: large carriers) [SEQ ID NO 26] | binds | – |
| VRLFIVCIIICCLMLLVG (peptide, not shown: large carriers) [SEQ ID NO 27] | binds | – |
| MYSNVSVDVAADGVSCVCCSWSVQNDRPDSG (peptide, not shown: large carriers) [SEQ ID NO 3] | binds | – |
| RATYWFRSRYQVVHRSRLPYGPLIVVGIGALNLELNRTLLCS (peptide, not shown: large carriers) [SEQ ID NO 30] | binds | – |
| LAGRHFSRVVDRIRYRLLWT (peptide, not shown: large carriers) [SEQ ID NO 33] | binds | – |
| MPIPPLCRSAGRLLYLYTHY (peptide, not shown: large carriers) [SEQ ID NO 34] | binds | – |
| KPWEYLRMFPWMRVARFFIW (peptide, not shown: large carriers) [SEQ ID NO 37] | binds | – |
| EFGSGLVSGRGIIVRRMLFLRVLLWVLRSAEIYES (peptide, not shown: large carriers) [SEQ ID NO 39] | – | binds |
| GPFENWRVEELARGRYRMHGDVVLRSAEIYES (peptide, not shown: large carriers) [SEQ ID NO 40] | – | binds |
| GPIDCIIFLLWYSRQQRGGSRGGP (peptide, not shown: large carriers) [SEQ ID NO 41] | – | binds |
| B1 | – | binds |

| Binder | binding (livin [1]) | binding (livin [2]) |
| --- | --- | --- |
| B2 | – | binds |
| GPSNDNQLVLRVRILRVLIVMRVLRSAEIYES (peptide, not shown: large carriers) [SEQ ID NO 44] | – | binds |
| EFRVRRMRLLVRLMGSDDSGTIPDFGP (peptide, not shown: large carriers) [SEQ ID NO 45] | – | binds |
| GPSLQFLEVVVSCYMVLYDLSKGP (peptide, not shown: large carriers) [SEQ ID NO 46] | – | binds |
| GPQPFCSPPSFYTRLLIIVRLLSLDLQRSSNRRY (peptide, not shown: large carriers) [SEQ ID NO 47] | – | binds |
| GPAPLSLCVCKCGCGHTRPFVGP (peptide, not shown: large carriers) [SEQ ID NO 48] | – | binds |
| GPDVHIWQSIIFYAMRHMMGP (peptide, not shown: large carriers) [SEQ ID NO 49] | – | binds |
| EFGSGCGCFVRGRIVRIRCVILLLRVLRSAEIYES (peptide, not shown: large carriers) [SEQ ID NO 50] | – | binds |
| B3 | – | binds |
| EFGSGLCVRRWWGMSVGSRIMLVMLVLRSAEIYES (peptide, not shown: large carriers) [SEQ ID NO 52] | – | binds |
| GPVYSEAFVCLVCAGVCVEECGGSLDLQRSSNRRY (peptide, not shown: large carriers) [SEQ ID NO 53] | – | binds |
| GPIETVGFIVRLHTLLMVLRRTGP (peptide, not shown: large carriers) [SEQ ID NO 54] | – | binds |
| GPLHRTLLVDMCCWLMSLESNMGP (peptide, not shown: large carriers) [SEQ ID NO 55] | – | binds |
| EFGVRVVCVVRSLFVLRCGLLRCRGVLRSAEIYES (peptide, not shown: large carriers) [SEQ ID NO 56] | – | binds |
| EFVRECSLCRVMVLMFVLRGIRLRVLRSAEIYES (peptide, not shown: large carriers) [SEQ ID NO 57] | – | binds |
| EFGVRLLVLLRLRCVRRGGGCFVCWVLRSAEIYES (peptide, not shown: large carriers) [SEQ ID NO 58] | – | binds |
| GSGFRMRVLVMVCRLRVVFLVRRVLRSAEIYES (peptide, not shown: large carriers) [SEQ ID NO 59] | – | binds |
| GRLGWLRLLCVRIVLVCLRRGLVLRSAEIYES (peptide, not shown: large carriers) [SEQ ID NO 60] | – | binds |
| EFGSGWYVDLGDYSVWVDYVYCGSGSLDLQRSSNRRY (peptide, not shown: large carriers) [SEQ ID NO 61] | – | binds |
| GPSQCAQRVALIQMYIDALVCIGP (peptide, not shown: large carriers) [SEQ ID NO 62] | – | binds |
| GPLLDPMLRQRFSLRVWIMLLGVLRSAEIYES (peptide, not shown: large carriers) [SEQ ID NO 64] | – | binds |

| Binder | binding (livin [1]) | binding (livin [2]) |
| --- | --- | --- |
| GPNSWVWRYVTIAHWLANYRMSGP (peptide, not shown: large carriers) [SEQ ID NO 65] | – | binds |
| GPAMKSCTIRVFRVCIVLRIVRVLRSAEIYES (peptide, not shown: large carriers) [SEQ ID NO 66] | – | binds |
| EFGVRMRLMIRIFRGLFVLRGFRGLVLRSAEIYES (peptide, not shown: large carriers) [SEQ ID NO 67] | – | binds |
| GPVPSSPCSFLLYCRDVLCHWPGP (peptide, not shown: large carriers) [SEQ ID NO 68] | – | binds |
| GPCEPFIGDCWPCLIRTLVTLRGLDL (peptide, not shown: large carriers) [SEQ ID NO 69] | – | binds |
| B4 | – | binds |
| EFRVRIIVVSLRIWRLLVRRRCLCLVLRSAEIYES (peptide, not shown: large carriers) [SEQ ID NO 72] | – | binds |
| GPVECADVLFASRIRLLCLCFRVLRSAEIYES (peptide, not shown: large carriers) [SEQ ID NO 73] | – | binds |
| EFGRRLLVFRLSVFVVVLGRRLSRVLRSAEIYES (peptide, not shown: large carriers) [SEQ ID NO 74] | – | binds |
| B5 | – | binds |
| B6 | – | binds |
| GSRGLRLCLLGRCRLCGCLIIMRVLRSAEIYES (peptide, not shown: large carriers) [SEQ ID NO 77] | – | binds |
| GPESYVLWPARGEALYYLRAWLGP (peptide, not shown: large carriers) [SEQ ID NO 78] | – | binds |
| B7 | – | binds |
| B8 | – | binds |
| GPSSLLRRCLILGMVLGVLRRRVLRSAEIYES (peptide, not shown: large carriers) [SEQ ID NO 81] | – | binds |
| GPHPVLAVQLINAYLGLERVGRGP (peptide, not shown: large carriers) [SEQ ID NO 82] | – | binds |
| GPLPSGAVSTEAYFWEVFKLLMGP (peptide, not shown: large carriers) [SEQ ID NO 83] | – | binds |
| B9 | – | binds |
| GPVGVEGVDSVFGWCVVCFLLVWSLDLQRSSNRRY (peptide, not shown: large carriers) [SEQ ID NO 85] | – | binds |
| EFRVRVLGCMGVFLRLRFCGGLRLRVLRSAEIYES (peptide, not shown: large carriers) [SEQ ID NO 86] | – | binds |
